# Reference: patent US9897592B2, “Methods for identifying arthropod repellents and attractants, and compounds and compositions identified by such methods” (The Regents of the University of California, priority 2013, dated 2018)
# Counter-ions that a name gives are not always drawn. The name of at least one read-out is uncertain.
# Tested on: cpA neuron
# Assay: Inhibition screen: odorant overlaid on 0.15% CO2 stimulus, cpA response
# Assay type: cell-based, Aedes aegypti
# Conditions: 1-s odorant stimulus (10^−2) in the middle of a 3-s 0.15% CO2 stimulus, vs solvent overlay
# Method: Percent inhibition was calculated by comparing mean odorant overlay responses to mean solvent overlay responses, and error bars are s.d.
# CpA-off and sham treated mosquitoes were pre-treated for 3 min in an upended 1 L glass dish in which 100 μl of fresh butyryl chloride (1%) or paraffin oil was allowed to vaporize for 10-20 min. The odor delivery system for different screens is shown in FIG. 7b; solvent responses during the same recording session were subtracted. Inhibition screen was tested. For the ultra-prolonged activator the 3-s stimulus was delivered from a 10 ml disposable pipette using a CS-55 stimulus controller (Syntech), CO2 was delivered, and responses to subsequent odor stimuli were calculated by subtracting baseline activity 1 s prior to each stimulus. When responses to repeated pulses of cyclopentanone and CO2 were compared, baseline activity between seconds 5 and 6 following each stimulus was subtracted. Spike counting was done manually or with Igor Pro6.2 (Wavemetrics) with the Neuromatic v2.00 macro (by Jason Rothman), and peak-to-peak spike amplitudes for FIG. 8 were analysed in Clampfit 10.3 (Molecular Devices).
row,Structure (SMILES),% Inhibition
1,"C=C(C)C(=C)C [2,3-dimethylbuta-1,3-diene]",4.4%
2,CC(=O)C=C(C)C [4-methylpent-3-en-2-one],−5.5%
3,CCCc1ccncc1 [4-propylpyridine],−4.3%
4,CC1CCC(=O)O1 (stereo not shown) [5-methyloxolan-2-one],−10.0%
5,CC/C=C\CCO [(Z)-hex-3-en-1-ol],−0.7%
6,CCOC=O [ethyl formate],0.7%
7,COCc1ccccc1 [methoxymethylbenzene],−2.0%
